{"source": "patent US5137805", "key": {"[1]": {"target": "T1, heat shock factor (HSF), in vitro heat-activated HeLa cytoplasmic S100 extract (Homo sapiens) (UniProt Q00613)", "T1 sequence (looked up, limits assumed)": "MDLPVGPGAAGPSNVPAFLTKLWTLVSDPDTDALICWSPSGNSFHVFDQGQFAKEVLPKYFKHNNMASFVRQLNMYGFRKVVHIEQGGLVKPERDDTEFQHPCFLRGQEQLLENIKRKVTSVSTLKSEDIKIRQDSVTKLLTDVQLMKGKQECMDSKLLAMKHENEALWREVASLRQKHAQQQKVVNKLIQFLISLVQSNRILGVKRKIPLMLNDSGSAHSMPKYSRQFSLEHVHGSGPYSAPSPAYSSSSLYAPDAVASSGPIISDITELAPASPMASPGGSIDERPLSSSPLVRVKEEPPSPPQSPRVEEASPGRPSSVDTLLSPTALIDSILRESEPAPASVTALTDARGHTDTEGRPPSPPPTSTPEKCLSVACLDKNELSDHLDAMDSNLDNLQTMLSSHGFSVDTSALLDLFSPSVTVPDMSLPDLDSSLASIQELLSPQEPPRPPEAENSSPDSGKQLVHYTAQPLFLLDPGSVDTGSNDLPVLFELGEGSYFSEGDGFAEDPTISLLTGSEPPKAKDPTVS", "assay": "competition with a labelled probe", "settings": "no competition for HSE probe; protein in an extract"}, "[2]": {"target": "T2, heat shock factor (HSF), from HeLa nuclear extract, fractionated on DNA-cellulose (Homo sapiens) (UniProt Q00613)", "T2 sequence (looked up, limits assumed)": "T1 sequence (looked up, limits assumed)", "assay": "binding assay", "settings": "affinity chromatography on oligo-Sepharose; loaded in 0.3 M KCl, eluted with 0.8 M KCl; purified native protein"}}, "note": "For some assays here: Results from cells or extracts need not show a direct contact. For some assays here: A negative result means that nothing was seen under these conditions. Tags and fusion partners may be left off the protein sequences shown.", "data": [{"sequence": "CACCGTCGATTTCCCTTCTGAGCCAATCACCGAGCTCGA (double strand) [39-bp CCAAT oligonucleotide]", "values": [{"measurement": "binding result", "setting": "[1]", "result": "no binding"}]}, {"sequence": "GATCCTAGAAGCTTCTAGAAGCTTCTAG (double strand) [self-complementary 28-mer HSE affinity oligonucleotide]", "values": [{"measurement": "binding result", "setting": "[2]", "result": "binds"}]}]}
